Test results reported in patent publication US6500927B2 (priority 1998, dated 2002).
These are yes or no findings as the source states them, for the method shown. Some binding calls cover weakened binding; strength is not graded here.

Columns and labels:
Assay in all cases: competition with ^3H-DAMGO, CHO cell membranes
[1] = target: MOR-1E splice variant of the mu-opioid receptor-1 (mouse) (UniProt P42866)
[2] = target: MOR-1D splice variant of the mu-opioid receptor-1 (mouse) (UniProt P42866)
[3] = target: MOR-1C splice variant of the mu-opioid receptor-1 (mouse)
[4] = target: MOR-1 (mu-opioid receptor-1, full length) (mouse) (UniProt P42866)

Measured: binding

dynorphin A (from UniProt P01213 207-223) (peptide)
binds: [1] | [2] | [3] | [4]
